The values below are quoted from earlier work in US20230165862A1, “CANCER THERAPY USING 3,5-DISUBSTITUTED BENZENE ALKYNYL COMPOUND AND MEK INHIBITOR” (TAIHO PHARMACEUTICAL CO., LTD., priority 2020, published 2023).

Where two headings read alike, the source gives them in different places. Bounds are passed on as bounds.

For the data set the following is noted: human.

For the compound `C=CC(=O)N1CC[C@H](n2nc(C#Cc3cc(OC)cc(OC)c3)c3c(N)ncnc32)C1` [Compound 1, (S)-1-(3-(4-amino-3-((3,5-dimethoxyphenyl)ethynyl)-1H-pyrazolo[3,4-d]pyrimidin-1-yl)pyrrolidin-1-yl)prop-2-en-1-one], the “Time the blood concentration (4.2 ng/mL, corresponds to 10 nM) is maintained” value (QD dose (every day) of 8 mg or more) is at least 16 h and the “Time the blood concentration (4.2 ng/mL, corresponds to 10 nM) is maintained” value (QOD dose (once every two days) of 24 mg or more) was at least 36 h.
